Consider one substance from patent US20260207649A1, “LSD1 INHIBITOR AND PRMT6 INHIBITOR FOR USE IN THE TREATMENT OF A DISEASE ASSOCIATED WITH GAIN-OF-FUNCTION OF ANDROGEN RECEPTOR (AR) AND/OR WITH OVEREXPRESSION OF AN AR COACTIVATOR” (FONDAZIONE TELETHON ETS(30%), priority 2022, published 2026).

Amino acid sequences for entries named in this document (tags omitted).
UniProt P10275: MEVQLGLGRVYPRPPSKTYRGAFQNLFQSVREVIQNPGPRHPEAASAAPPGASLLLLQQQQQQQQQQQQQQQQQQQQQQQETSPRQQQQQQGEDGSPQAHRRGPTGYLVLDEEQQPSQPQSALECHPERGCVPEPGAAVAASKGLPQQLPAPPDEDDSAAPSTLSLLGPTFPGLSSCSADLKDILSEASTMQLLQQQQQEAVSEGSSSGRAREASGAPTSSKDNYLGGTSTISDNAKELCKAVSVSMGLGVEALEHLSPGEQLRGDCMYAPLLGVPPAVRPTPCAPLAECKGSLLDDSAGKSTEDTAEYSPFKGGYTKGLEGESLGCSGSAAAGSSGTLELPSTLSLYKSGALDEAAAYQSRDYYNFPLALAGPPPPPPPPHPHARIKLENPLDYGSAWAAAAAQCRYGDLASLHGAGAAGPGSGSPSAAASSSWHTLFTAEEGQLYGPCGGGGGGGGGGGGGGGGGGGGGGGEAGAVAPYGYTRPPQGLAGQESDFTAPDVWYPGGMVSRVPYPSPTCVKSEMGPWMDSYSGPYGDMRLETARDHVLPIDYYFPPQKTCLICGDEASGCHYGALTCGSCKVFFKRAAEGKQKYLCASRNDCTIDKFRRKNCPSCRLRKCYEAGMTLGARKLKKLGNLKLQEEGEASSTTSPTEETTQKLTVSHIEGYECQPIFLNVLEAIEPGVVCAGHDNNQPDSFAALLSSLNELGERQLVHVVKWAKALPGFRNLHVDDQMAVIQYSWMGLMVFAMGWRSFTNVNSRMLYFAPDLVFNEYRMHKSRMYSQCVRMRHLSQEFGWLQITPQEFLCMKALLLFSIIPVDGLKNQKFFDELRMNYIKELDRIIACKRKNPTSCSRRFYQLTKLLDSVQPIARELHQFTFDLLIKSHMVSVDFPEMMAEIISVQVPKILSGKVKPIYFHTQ
UniProt Q6NZB1: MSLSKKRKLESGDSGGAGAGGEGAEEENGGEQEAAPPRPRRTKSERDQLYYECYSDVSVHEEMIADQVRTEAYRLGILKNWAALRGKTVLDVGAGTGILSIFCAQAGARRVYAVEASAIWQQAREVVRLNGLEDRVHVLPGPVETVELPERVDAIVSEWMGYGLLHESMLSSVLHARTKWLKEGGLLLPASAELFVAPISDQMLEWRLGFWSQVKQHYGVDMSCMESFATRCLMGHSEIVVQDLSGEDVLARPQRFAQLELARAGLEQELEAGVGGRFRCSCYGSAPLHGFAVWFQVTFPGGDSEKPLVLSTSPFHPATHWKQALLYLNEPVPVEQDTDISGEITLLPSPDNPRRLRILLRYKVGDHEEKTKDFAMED

These are yes or no findings as the source states them, for the method shown. In cells and extracts the contact can be indirect. Some binding calls cover weakened binding; strength is not graded here.

The target in this assay is AR24Q (human) (UniProt P10275). Briefly: proximity ligation assay (PLA), MN1 cells, with Lsd1 silencing.

“endogenous PRMT6 (mouse; MN1 cells and quadriceps muscle) (from UniProt Q6NZB1 1-378) (enzyme)”: the binding result was “binds”.
